From the supplement of paper PMC10849652
This is one part of the list.

Amino acid sequences for entries named in this document (tags omitted). A change or cut given only in a name is not applied to a line headed by its entry.
UniProt Q96T21: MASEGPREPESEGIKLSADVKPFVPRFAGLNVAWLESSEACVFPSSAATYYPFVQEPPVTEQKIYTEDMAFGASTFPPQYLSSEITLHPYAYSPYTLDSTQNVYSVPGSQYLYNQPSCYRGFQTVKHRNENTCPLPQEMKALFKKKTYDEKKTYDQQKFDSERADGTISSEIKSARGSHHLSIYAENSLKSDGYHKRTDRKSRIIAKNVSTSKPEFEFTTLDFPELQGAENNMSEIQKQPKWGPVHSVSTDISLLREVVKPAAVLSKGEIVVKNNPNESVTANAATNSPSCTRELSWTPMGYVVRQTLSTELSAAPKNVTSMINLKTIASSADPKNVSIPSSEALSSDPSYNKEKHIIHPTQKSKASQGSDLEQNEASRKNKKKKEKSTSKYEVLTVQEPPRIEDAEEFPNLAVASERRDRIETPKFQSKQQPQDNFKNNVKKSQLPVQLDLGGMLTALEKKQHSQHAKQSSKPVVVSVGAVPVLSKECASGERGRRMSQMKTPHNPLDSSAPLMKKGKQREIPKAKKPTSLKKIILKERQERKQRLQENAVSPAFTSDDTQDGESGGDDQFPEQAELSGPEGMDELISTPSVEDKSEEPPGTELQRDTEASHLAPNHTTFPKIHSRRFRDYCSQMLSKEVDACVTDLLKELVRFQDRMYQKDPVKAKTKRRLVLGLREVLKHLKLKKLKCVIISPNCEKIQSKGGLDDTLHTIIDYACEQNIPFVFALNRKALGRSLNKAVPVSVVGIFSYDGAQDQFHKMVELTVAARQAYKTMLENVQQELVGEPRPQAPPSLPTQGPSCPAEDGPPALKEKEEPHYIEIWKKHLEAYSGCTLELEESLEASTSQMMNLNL
UniProt O75326: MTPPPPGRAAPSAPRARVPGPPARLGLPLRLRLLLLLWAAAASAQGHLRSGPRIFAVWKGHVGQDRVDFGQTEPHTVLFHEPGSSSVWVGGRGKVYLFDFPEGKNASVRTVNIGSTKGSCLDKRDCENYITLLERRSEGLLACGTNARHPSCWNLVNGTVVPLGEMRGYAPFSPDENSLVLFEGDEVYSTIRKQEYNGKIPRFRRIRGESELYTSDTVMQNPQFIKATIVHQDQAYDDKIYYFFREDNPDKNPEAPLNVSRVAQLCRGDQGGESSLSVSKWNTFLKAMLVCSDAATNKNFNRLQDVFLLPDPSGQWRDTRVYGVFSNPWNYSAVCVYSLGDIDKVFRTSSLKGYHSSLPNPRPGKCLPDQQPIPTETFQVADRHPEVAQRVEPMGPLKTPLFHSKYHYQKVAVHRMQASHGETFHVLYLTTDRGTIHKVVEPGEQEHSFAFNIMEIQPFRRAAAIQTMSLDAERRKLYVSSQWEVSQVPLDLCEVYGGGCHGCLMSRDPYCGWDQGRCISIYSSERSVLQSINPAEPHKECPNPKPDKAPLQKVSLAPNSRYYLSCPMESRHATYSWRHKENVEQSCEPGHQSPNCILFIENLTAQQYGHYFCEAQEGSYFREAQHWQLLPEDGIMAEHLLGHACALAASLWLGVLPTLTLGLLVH
UniProt Q96JX3: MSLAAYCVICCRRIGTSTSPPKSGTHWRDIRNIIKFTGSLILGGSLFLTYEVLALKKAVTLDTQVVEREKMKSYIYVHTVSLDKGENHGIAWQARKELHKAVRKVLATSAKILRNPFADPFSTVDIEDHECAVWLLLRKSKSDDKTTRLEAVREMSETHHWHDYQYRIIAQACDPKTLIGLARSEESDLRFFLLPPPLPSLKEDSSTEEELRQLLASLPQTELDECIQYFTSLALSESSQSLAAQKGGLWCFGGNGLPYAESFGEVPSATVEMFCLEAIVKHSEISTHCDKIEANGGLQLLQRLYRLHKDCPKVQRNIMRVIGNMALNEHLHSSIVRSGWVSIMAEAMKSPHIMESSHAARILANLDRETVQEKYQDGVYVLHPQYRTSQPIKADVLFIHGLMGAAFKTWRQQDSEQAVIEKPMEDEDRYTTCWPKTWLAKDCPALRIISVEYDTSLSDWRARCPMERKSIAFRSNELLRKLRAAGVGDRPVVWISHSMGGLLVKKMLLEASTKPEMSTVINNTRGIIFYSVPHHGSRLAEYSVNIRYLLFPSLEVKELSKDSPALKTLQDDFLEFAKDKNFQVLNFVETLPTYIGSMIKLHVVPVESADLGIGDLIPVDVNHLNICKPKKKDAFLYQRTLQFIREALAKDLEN
UniProt Q8WWX9, whole entry, looked up: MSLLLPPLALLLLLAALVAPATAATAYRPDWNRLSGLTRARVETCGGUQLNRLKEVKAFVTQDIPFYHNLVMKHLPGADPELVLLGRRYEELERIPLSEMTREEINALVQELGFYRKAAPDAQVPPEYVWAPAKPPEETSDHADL
UniProt Q16181: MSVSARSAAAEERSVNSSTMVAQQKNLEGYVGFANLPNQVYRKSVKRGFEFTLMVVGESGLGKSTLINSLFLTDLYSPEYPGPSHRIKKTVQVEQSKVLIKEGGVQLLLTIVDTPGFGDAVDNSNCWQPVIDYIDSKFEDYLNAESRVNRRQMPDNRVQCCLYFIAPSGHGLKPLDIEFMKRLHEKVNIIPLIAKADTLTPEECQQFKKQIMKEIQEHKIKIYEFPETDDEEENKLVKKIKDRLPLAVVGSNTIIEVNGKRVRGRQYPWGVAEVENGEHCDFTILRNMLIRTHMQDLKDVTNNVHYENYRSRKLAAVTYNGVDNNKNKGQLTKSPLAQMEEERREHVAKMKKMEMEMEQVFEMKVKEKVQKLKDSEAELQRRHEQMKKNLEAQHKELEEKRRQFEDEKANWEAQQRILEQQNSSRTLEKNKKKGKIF
UniProt Q9H0F6: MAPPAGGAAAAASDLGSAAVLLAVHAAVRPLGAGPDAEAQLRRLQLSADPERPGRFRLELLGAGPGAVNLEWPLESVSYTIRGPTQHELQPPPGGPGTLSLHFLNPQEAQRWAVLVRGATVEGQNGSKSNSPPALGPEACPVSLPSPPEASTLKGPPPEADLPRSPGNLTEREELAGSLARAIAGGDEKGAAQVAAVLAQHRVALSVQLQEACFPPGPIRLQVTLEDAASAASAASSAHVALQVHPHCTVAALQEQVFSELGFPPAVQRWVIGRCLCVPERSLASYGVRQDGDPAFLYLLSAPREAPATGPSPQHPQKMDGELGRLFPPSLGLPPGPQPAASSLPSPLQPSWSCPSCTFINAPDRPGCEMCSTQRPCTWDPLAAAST
UniProt Q9ULL8: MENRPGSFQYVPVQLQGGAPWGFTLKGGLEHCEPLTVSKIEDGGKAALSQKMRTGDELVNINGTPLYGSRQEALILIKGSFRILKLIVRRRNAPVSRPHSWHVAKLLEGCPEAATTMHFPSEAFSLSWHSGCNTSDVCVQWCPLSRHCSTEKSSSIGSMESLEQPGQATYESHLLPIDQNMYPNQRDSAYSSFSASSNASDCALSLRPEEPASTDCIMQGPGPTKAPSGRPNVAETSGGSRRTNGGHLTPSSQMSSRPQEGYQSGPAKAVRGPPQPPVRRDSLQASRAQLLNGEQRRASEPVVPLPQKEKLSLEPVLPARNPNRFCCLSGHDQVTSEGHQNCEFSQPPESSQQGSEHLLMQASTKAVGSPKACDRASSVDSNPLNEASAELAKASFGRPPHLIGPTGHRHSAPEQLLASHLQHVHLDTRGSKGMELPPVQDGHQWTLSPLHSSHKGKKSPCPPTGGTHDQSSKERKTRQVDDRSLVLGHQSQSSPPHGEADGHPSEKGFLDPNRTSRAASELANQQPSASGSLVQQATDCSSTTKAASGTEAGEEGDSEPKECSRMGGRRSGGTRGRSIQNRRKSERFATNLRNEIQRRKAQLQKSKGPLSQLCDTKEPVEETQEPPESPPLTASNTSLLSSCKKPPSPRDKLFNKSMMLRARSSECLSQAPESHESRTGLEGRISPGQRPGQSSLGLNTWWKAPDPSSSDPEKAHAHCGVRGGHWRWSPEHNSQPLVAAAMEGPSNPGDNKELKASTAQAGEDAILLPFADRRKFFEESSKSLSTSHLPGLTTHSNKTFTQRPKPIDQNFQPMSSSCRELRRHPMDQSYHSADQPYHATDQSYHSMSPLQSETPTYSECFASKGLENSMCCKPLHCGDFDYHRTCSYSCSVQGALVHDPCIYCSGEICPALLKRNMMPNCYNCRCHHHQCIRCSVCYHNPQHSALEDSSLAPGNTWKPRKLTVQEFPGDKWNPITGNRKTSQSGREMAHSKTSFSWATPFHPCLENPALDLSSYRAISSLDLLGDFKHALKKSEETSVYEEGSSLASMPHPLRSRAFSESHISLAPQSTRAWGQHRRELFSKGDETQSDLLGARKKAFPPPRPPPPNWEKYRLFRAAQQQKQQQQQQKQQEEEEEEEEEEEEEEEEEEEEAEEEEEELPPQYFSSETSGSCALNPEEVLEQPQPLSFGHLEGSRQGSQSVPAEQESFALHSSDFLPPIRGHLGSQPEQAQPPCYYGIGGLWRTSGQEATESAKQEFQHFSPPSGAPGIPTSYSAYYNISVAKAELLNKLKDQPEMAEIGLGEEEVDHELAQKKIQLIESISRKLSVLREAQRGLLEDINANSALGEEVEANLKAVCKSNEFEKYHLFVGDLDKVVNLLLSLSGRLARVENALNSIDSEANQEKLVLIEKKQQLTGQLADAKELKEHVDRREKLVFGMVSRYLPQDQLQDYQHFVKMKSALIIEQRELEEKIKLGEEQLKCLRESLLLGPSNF
UniProt A1X283: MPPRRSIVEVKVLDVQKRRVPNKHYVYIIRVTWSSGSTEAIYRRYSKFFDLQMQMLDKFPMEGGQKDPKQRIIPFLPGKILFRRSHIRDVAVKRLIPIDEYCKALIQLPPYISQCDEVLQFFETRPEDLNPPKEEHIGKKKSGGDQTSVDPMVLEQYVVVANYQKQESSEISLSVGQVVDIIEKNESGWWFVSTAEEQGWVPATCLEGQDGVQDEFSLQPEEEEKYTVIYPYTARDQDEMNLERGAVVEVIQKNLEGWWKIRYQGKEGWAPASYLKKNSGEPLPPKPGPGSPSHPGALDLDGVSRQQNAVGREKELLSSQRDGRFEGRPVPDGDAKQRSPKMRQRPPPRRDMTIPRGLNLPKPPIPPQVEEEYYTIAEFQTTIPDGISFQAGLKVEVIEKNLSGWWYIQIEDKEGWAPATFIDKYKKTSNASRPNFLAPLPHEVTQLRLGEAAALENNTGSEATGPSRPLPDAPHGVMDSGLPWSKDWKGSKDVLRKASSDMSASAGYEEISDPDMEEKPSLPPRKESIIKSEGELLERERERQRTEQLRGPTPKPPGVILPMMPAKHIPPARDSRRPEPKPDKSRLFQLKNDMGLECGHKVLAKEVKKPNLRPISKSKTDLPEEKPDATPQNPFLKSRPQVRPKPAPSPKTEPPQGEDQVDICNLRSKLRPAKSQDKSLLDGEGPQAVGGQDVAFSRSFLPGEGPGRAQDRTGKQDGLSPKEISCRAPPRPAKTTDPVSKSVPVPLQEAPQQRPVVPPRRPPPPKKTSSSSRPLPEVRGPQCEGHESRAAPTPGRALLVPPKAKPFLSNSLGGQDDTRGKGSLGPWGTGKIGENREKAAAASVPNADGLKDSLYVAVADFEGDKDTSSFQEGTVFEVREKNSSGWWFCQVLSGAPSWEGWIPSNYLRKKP
UniProt P84101: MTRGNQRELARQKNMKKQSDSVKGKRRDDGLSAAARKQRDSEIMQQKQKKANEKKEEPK
UniProt Q96LD8: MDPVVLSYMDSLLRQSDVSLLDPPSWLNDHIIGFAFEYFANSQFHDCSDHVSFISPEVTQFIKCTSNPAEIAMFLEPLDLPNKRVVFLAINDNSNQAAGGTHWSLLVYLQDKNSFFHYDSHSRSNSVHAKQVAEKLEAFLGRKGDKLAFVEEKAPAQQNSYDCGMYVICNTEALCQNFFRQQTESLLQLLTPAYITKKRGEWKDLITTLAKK
UniProt Q9NZV5, whole entry, looked up: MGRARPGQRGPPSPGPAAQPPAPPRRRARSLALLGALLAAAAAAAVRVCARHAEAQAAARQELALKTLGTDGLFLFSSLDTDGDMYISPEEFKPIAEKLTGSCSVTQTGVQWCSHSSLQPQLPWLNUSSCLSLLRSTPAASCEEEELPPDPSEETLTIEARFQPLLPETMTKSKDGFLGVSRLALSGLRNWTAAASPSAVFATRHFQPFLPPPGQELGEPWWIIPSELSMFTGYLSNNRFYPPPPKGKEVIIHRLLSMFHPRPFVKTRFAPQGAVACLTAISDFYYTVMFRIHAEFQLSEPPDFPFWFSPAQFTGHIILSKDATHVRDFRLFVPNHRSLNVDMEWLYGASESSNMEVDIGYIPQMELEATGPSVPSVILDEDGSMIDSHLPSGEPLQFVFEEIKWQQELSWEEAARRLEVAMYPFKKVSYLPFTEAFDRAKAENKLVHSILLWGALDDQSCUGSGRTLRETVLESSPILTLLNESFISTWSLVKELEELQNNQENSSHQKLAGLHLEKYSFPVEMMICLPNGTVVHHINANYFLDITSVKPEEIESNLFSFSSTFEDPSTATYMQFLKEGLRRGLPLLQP
UniProt Q8WVK7: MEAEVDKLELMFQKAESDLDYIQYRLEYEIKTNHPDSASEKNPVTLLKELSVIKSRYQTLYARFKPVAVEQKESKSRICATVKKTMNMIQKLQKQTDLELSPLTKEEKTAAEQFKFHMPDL

Columns and labels:
Test in all cases: log2 fold change, soluble protein after heating vs DMSO (PISA); higher = thermal stabilisation; K562 cells, 10 uM, 30 min; active = over 0.2 and 3.5 SD of the protein, either way, in both replicates (recomputed)
[1] = compound: COc1cc(Nc2ncc3c(n2)-c2ccc(Cl)cc2C(c2c(F)cccc2OC)=NC3)ccc1C(=O)O [alisertib]
Method in brief: (§1)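 Soluble protein was defined as the supernatant after 21,000xg for 90 min. It came from K562 cells at 2×10^6 cells/mL given 10 μM compound for 30 min, heated in aliquots for 3 min across 48°C-58°C, pooled, and extracted in PBS with 0.5% NP-40 at 4°C, and was quantified by TMTpro 16plex LC-MS/MS with equalised channel sums. Thermal stability against control samples, from duplicates, is reported as log2 fold change.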

[2] = compound: COc1cc2ncnc(Nc3ccc(F)c(Cl)c3)c2cc1OCCCN1CCOCC1 [gefitinib]
Method in brief: as §1

[3] = compound: COc1cccc2cc(-c3nc([C@H]4CC[C@H](C(=O)O)CC4)n4ncnc(N)c34)[nH]c12
Method in brief: as §1

[4] = compound: CS(=O)(=O)N1CCN(Cc2cc3nc(-c4cccc5[nH]ncc45)nc(N4CCOCC4)c3s2)CC1 [pictilisib]
Method in brief: as §1

[5] = compound: COC1=CC=C(C=C1)CN2C=CC3=C2C=C(C=C3)C(=O)NO
Method in brief: as §1

[6] = compound: COc1cc(C(=O)O)ccc1NC(=O)[C@@H]1N[C@@H](CC(C)(C)C)[C@](C#N)(c2ccc(Cl)cc2F)[C@H]1c1cccc(Cl)c1F [idasanutlin]
Method in brief: as §1

[7] = compound: COc1cc2nc(-c3cc(F)ccc3O)nc(N[C@@H]3CNC[C@H]3C(C)(C)O)c2cc1OC
Method in brief: as §1

[8] = compound: CS(=O)(=O)CCNCc1ccc(-c2ccc3ncnc(Nc4ccc(OCc5cccc(F)c5)c(Cl)c4)c3c2)o1 [lapatinib]
Method in brief: as §1

[9] = compound: CON(C)C(=O)N1N=C(c2cc(F)ccc2F)S[C@@]1(CCCN)c1ccccc1 [filanesib]
Method in brief: as §1

[10] = compound: CO[C@H]1C[C@@H]2CC[C@@H](C)[C@@](O)(O2)C(=O)C(=O)N2CCCC[C@H]2C(=O)O[C@H]([C@H](C)C[C@@H]2CC[C@H](n3cnnn3)[C@H](OC)C2)CC(=O)[C@H](C)/C=C(\C)[C@@H](O)[C@@H](OC)C(=O)[C@H](C)C[C@H](C)/C=C/C=C/C=C/1C [zotarolimus]
Method in brief: as §1

Measured: log2 fold change

SECISBP2 (UniProt Q96T21)
inactive: [1] 0.07 | [2] 0.17 | [3] -0.052 | [4] 0.233

SFXN1 (UniProt D6RDG7)
inactive: [1] 1.54 | [3] -0.086

SIGIRR (UniProt H0YDR5)
inactive: [5] -0.106 | [4] 0.116

SERPINB7 (UniProt O75635)
inactive: [6] -0.016 | [1] -0.005 | [3] 0.141 | [4] -0.226

SIK2 (UniProt Q9H0K1)
inactive: [1] -0.048 | [7] 0.126 | [3] 0 | [8] 0.094

SFR1 isoform 2 (UniProt Q86XK3)
inactive: [9] -0.023 | [10] -0.052 | [1] 0.026 | [3] 0.041

SEMA7A (UniProt O75326)
inactive: [4] 0.232

SERPINA12 (UniProt Q8IW75)
inactive: [9] 0.092 | [1] 1.2 | [2] 0.236 | [3] 0.08

SEMG2 (UniProt Q02383)
inactive: [9] -0.002 | [10] -0.021 | [6] -0.135 | [1] 0.005 | [2] -0.008 | [3] 0.063 | [4] -0.021

SHFL (UniProt Q9NUL5)
inactive: [9] 0.154 | [6] 0.229 | [1] -0.103 | [7] -0.079 | [2] -0.031 | [3] -0.019 | [8] 0.03 | [4] -0.077

SERAC1 (UniProt Q96JX3)
inactive: [10] -0.053 | [1] 0.275 | [2] 0.06 | [3] 0.208

SFT2D2 (UniProt O95562)
inactive: [9] -0.058 | [10] 0.038 | [6] 0.094 | [1] 0.018 | [7] 0.071 | [2] -0.067 | [3] 0.033 | [8] -0.031 | [4] 0.046

SEPTIN10 isoform 2 (UniProt Q9P0V9)
inactive: [9] -0.023 | [10] -0.064 | [6] 0.037 | [1] -0.087 | [7] 0.012 | [2] -0.039 | [3] 0.045 | [8] -0.042 | [4] 0.034

SH3BGR (UniProt P55822)
inactive: [10] 0.176 | [6] 0.274 | [1] 0.011 | [7] 0.028 | [2] 0.06 | [3] 0.036 | [8] 0.017 | [4] -0.18

SH2D3A (UniProt Q9BRG2)
inactive: [5] 0.193 | [2] -0.039

SELENOM (UniProt Q8WWX9)
inactive: [2] 0.037

SERPING1 isoform 3 (UniProt P05155)
inactive: [10] -0.235

SEPTIN5 (UniProt G3XAH0)
inactive: [9] -0.044 | [10] 0.045 | [6] 0.027 | [1] 0.003 | [7] 0.011 | [2] -0.057 | [3] 0.036 | [8] 0.094 | [4] 0.051

SEPTIN7 isoform 2 (UniProt Q16181)
inactive: [6] -0.116 | [1] 1.39 | [3] -0.297

SHARPIN (UniProt Q9H0F6)
inactive: [2] -0.074

SERPINB6, A0A2R8Y7E5
inactive: [5] 0.101 | [1] 1.55 | [3] 0.005

SHROOM4 (UniProt Q9ULL8)
inactive: [10] -0.098 | [6] 0.181 | [1] 0.113 | [7] 0.164 | [3] -0.086 | [8] 0.062 | [4] -0.078

SFT2D1 (UniProt Q8WV19)
inactive: [9] -0.072 | [6] -0.085 | [1] 0.047 | [7] 0.048 | [3] 0.041 | [8] -0.024

SEMG1 (UniProt P04279)
inactive: [10] -0.021 | [1] 0.551 | [3] -0.37

SH3PXD2B (UniProt A1X283)
inactive: [9] -0.06 | [10] -0.003 | [6] -0.174 | [1] -0.02 | [2] 0.149 | [3] -0.037 | [4] 0.162

SHC1 (UniProt P29353)
inactive: [6] -0.131

SERPINB5 (UniProt P36952)
inactive: [9] -0.393 | [1] 2.07 | [3] 0.026

SETD2 (UniProt Q9BYW2)
inactive: [6] 0.077 | [4] 0.132

SELENOK (UniProt Q9Y6D0)
inactive: [9] -0.257 | [10] 0.04 | [6] 0.166 | [1] 0.2 | [2] -0.214 | [3] 0.086 | [4] 0.011

SFXN4 isoform 3 (UniProt Q6P4A7)
inactive: [9] -0.216 | [10] 0.075 | [6] -0.303 | [7] -0.126 | [8] 0.195 | [4] 0.004

SERF2 (UniProt P84101)
inactive: [9] 0.038 | [10] 0.035 | [1] -0.031 | [2] 0.012 | [3] 0.016 | [4] 0.128

SENP8 (UniProt Q96LD8)
inactive: [5] 0.046 | [2] 0.032

SHROOM1 (UniProt Q2M3G4)
inactive: [10] 0.072 | [6] 0.088 | [7] 0.249 | [8] -0.151

SGSH (UniProt P51688)
inactive: [10] 0.026 | [2] -0.493

SERBP1 isoform 3 (UniProt Q8NC51)
inactive: [6] 0.073 | [1] -0.153 | [7] -0.081 | [2] 0.101 | [3] -0.038 | [8] 0.13 | [4] -0.201

SEPTIN2 (UniProt B5MCX3)
inactive: [6] -0.107

Fetched one by one from the list above, 3 records:
SERBP1 isoform 3 (UniProt Q8NC51)
inactive: [6] 0.073 | [1] -0.153 | [7] -0.081 | [2] 0.101 | [3] -0.038 | [8] 0.13 | [4] -0.201

SERF2 (UniProt P84101)
inactive: [9] 0.038 | [10] 0.035 | [1] -0.031 | [2] 0.012 | [3] 0.016 | [4] 0.128

SGSH (UniProt P51688)
inactive: [10] 0.026 | [2] -0.493

The results go on.

SELENON (UniProt Q9NZV5)
inactive: [9] 0.045 | [6] 0.056

SHB (UniProt Q15464)
inactive: [9] -0.012 | [10] 0.171 | [6] -0.083 | [1] 0.063 | [7] 0.031 | [3] 0.042 | [8] -0.009 | [4] -0.275

SH3GL3 isoform 3 (UniProt Q99963)
inactive: [9] -0.023 | [1] 0.083 | [7] 0.355 | [3] 0.036 | [8] -0.061

SKA2 (UniProt Q8WVK7)
inactive: [4] -0.063
